Data: PubChem BioAssay AID334 (DTP/NCI, 2004)
The list does not hold the whole screen: it covers a few groups of compounds. Not every dose and run of a compound is shown. T/C gives the treated animals as a percentage of the vehicle group. Some entries give survivors of the animals treated and no T/C: the source files T/C as zero there, which appears to mark a toxic dose or a test without result, not a measured value. Some doses without a T/C left all or most animals alive at the check, yet need not have been tolerated: survival well below the control is almost never listed, so the zero probably covers shortened survival too. Survivors were counted at the toxicity check, usually on the fifth day, unless a day is given; later deaths do not show. Schedule codes are those of the source, read here as Q, the interval in days (D) or hours (H), X, the number of doses. Where survival is the endpoint, this PubChem deposit counts one and a half times the control or more as active, and values a quarter to a half above the control carry no call in these data; other NCI protocols may use other cut-offs. Some T/C values are followed by the survivors on the day toxicity was checked, most often the fifth; where neither a count nor a note follows, no animal had died by that day. Some entries hold several experiments; their values stand side by side, smallest first.

Test system: CD2F1 mice, intracerebral P388 leukemia, median survival T/C%
Experiment: NCI In Vivo Anticancer Drug Screen. Data for tumor model P388 Leukemia (intracerebral) in CD2F1 (CDF1) mice
Conditions: T/C endpoint: median survival time, schedule: Q03HX008 (ip), vehicle: saline, higher T/C = longer survival
Description: The antitumor activity of compounds was measured in mice bearing transplantable tumors. Survival or tumor size were measured and the results are expressed as the measurement made in the treated group (T) divided by the measurement made in the vehicle treated control group (C). The tumor model used in this assay is P388 Leukemia (intracerebral) in CD2F1 (CDF1) mice

O=C(O)CCc1ccc(N(CCCl)CCCl)cc1 was tested, and the T/C (dose: 0.24 mg/kg/injection) was 100 % of control [9 of 10 alive], the T/C (dose: 0.48 mg/kg/injection) was 100 % of control and the T/C (dose: 0.95 mg/kg/injection) was 100 % of control. For the same compound, the T/C (dose: 1.9 mg/kg/injection) was 105 % of control, the T/C (dose: 3.8 mg/kg/injection) was 105 % of control and the survivor count (dose: 3.8 mg/kg/injection) was 10 of 10. For the same compound, the T/C (dose: 7.6 mg/kg/injection) was 110 and 126 % of control [9 of 10 alive], the survivor count (dose: 15.2 mg/kg/injection) was 4 of 10 and the survivor count (dose: 30.4 mg/kg/injection) was 0 of 10.
